The list shows a part of the results.

Sequences of proteins named here, by UniProt entry; tags and fusion partners are left off.
UniProt Q0JBA9, entry or part of it: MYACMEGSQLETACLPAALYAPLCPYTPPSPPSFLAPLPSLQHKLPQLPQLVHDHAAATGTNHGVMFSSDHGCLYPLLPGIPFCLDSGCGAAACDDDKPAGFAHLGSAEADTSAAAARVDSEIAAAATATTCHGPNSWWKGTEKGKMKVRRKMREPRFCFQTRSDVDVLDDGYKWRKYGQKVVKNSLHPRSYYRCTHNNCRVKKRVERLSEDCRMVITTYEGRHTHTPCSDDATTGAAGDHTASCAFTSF

The test has as its target OsWRKY34 (Oryza sativa, UniProt Q0JBA9 1-250). Briefly: protein-binding microarray (RPBM); PBS, 2% BSA, 51.3 ng/ul salmon testes DNA, 50 uM zinc acetate, 200 nM TF, 25 C, 1 h; high values mean tight binding. To be noted: protein: recombinant; tags: N-terminal polyhistidine and DsRed monomer fusion (pET32a); label: CyDye5-dUTP incorporated in the synthesized complementary strand; 3' TTTTT single-stranded linker to array surface; dsDNA, one strand shown. The gist of the method:
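Ni–NTA purification followed expression in E. coli BL21-CodonPlus of transcription factors fused N-terminally to a polyhistidine tag and DsRed. At 200 nM in PBS with 2% BSA, salmon testes DNA and 50 µM zinc acetate, the protein was incubated for 1 h at 25 °C with a custom Agilent array that had been primer-extended with Cy5-dUTP and blocked with 2% BSA. After washing, the array was read on an Axon 4000B scanner. The binding signal is per-feature fluorescence intensity in arbitrary units.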
For the sequence “GTATTTTTCCTGTGTTTTGCAATCCTTTGTTTTACACTTACGGAGTCACCTAGTGCAG”, the binding signal is 8660 fluorescence intensity (a.u.).

In the case of “CGACACGCCGCCTCCACCTGTATCCCTCAATCACCGATTCCGGAGTCACCTAGTGCAG”, the binding signal was 8210 fluorescence intensity (a.u.).

With “ATCCGCCCTACTACATCCGTGCACCATCTTTCCCTTTCAGCGGAGTCACCTAGTGCAG”, the binding signal is 8840 fluorescence intensity (a.u.).

As to “TGCTGCTACTACATGTGGTGTGGGTGGTATGGTAGGGCCCCGGAGTCACCTAGTGCAG”, the binding signal was 9060 fluorescence intensity (a.u.).

For the sequence “ACTATCTGTGTTGTTGAGTTCTTGCGCGTGCGTGCGTCACCGGAGTCACCTAGTGCAG”, the binding signal was 8260 fluorescence intensity (a.u.).

For the sequence “ACCATGGACCGTTGGCCACTGGAGCATTCTACCATGGTCTCGGAGTCACCTAGTGCAG”, the binding signal was 8480 fluorescence intensity (a.u.).

Consider “GTGTGCTGTGTGTGGTCTGAGATGATGTGTACTGCTGCTACGGAGTCACCTAGTGCAG”, for which the binding signal is 9510 fluorescence intensity (a.u.).

Consider “GTTTTGTTTTGTAACTTTTGATTGCTTACGTTTTTTCTCTCGGAGTCACCTAGTGCAG”, for which the binding signal is 8620 fluorescence intensity (a.u.).

Take “TGGTTCCGCTGCTGCTGTTGTTGTTGGTGTTTCCTCGTCCCGGAGTCACCTAGTGCAG”: the binding signal was 9340 fluorescence intensity (a.u.).

Consider “GGTAGACGGCGTCGTACCCGTCCTCCTCGCCGGACCGCATCGGAGTCACCTAGTGCAG”, for which the binding signal is 8840 fluorescence intensity (a.u.).

As to “GGCTGAGCTAATTTCGCCTTGCTTTGGTTTTTGTTTTTAGCGGAGTCACCTAGTGCAG”, the binding signal is 12600 fluorescence intensity (a.u.).

For the sequence “CTCGCAAGCCATGCTCTCGTCACACTCGCCGCTGCCGCTCCGGAGTCACCTAGTGCAG”, the binding signal was 9850 fluorescence intensity (a.u.).

Consider “CGGAGGGTAGAGTGCGTCATTGCGAACCTTTGGGGATTAACGGAGTCACCTAGTGCAG”, for which the binding signal was 9240 fluorescence intensity (a.u.).

Take “CTAGCCGGTCAGACCGCCCACACACCTGTGGTCTGACCGGCGGAGTCACCTAGTGCAG”: the binding signal was 9500 fluorescence intensity (a.u.).

Take “TCATATCATTACTTGTACGTTTATACCTTGTGTTACTTTTCGGAGTCACCTAGTGCAG”: the binding signal was 8490 fluorescence intensity (a.u.).

As to “CGTTGCCTCGCCTAAACCCATCACCCCACGCCACCACCTCCGGAGTCACCTAGTGCAG”, the binding signal was 11200 fluorescence intensity (a.u.).

For “TGGTGTTGTTCAGTCCGACTTCTCAAAATCGCGAAATTCTCGGAGTCACCTAGTGCAG”, the binding signal is 10300 fluorescence intensity (a.u.).

On to “TATCCTCTAGAGCTACATTTTCTCTCACCACACGCTATTTCGGAGTCACCTAGTGCAG”, for which the binding signal is 10400 fluorescence intensity (a.u.).

With “GCCGCCGCCACAAACCTCCGCCCGTTTCGCCCTGATCTCTCGGAGTCACCTAGTGCAG”, the binding signal is 11100 fluorescence intensity (a.u.).

As for “GTCGCAATCACCGAAGCGCACCTCGATCTCGGTCCAATCTCGGAGTCACCTAGTGCAG”, the binding signal was 9170 fluorescence intensity (a.u.).

Turning to “TTTCCAAGGGCCTAAGGGTTTCTTCTGTACAACAGTGGGGCGGAGTCACCTAGTGCAG”, the binding signal is 8530 fluorescence intensity (a.u.).

Take “CGATCGCCTCCACCACCCGGAGCATCTCCTCGTACTCCTCCGGAGTCACCTAGTGCAG”: the binding signal was 8400 fluorescence intensity (a.u.).

With “CTGCATTTCGTCCCTGTTCTGCCGCCGACGAGCGACGATGCGGAGTCACCTAGTGCAG”, the binding signal was 8860 fluorescence intensity (a.u.).

As to “CTTCTCCGGCTACGCGCCTCTCCCAACGAACGCCAACCCACGGAGTCACCTAGTGCAG”, the binding signal was 8750 fluorescence intensity (a.u.).

Turning to “GCCAGTTAGGGACCTAGGGACTTGGGTTGGGCGGGAACTTCGGAGTCACCTAGTGCAG”, the binding signal was 14100 fluorescence intensity (a.u.).

Consider “TCACATGCATCCCTGACACGTCAGTATTTCGTTCCATAGCCGGAGTCACCTAGTGCAG”, for which the binding signal was 9190 fluorescence intensity (a.u.).

“ACCTCTCGTAGCCTGACATGATCACATCTCTCGTCATTCCCGGAGTCACCTAGTGCAG”: the binding signal is 13700 fluorescence intensity (a.u.).

Consider “GAGGCCTTCTAGCTCCACATTTTGTTTTGCTTTTCTCAGTCGGAGTCACCTAGTGCAG”, for which the binding signal was 9850 fluorescence intensity (a.u.).

With “GCCGTGATGAGTCCGAACTCGCGTTGACCTATTGACTCGTCGGAGTCACCTAGTGCAG”, the binding signal is 11000 fluorescence intensity (a.u.).

As for “AACCTCCCGTGTCGCGCGCGTCCATGGCGGCTACTAGTAGCGGAGTCACCTAGTGCAG”, the binding signal was 11000 fluorescence intensity (a.u.).

As to “CTACTTTCATACTTATAAGATTTTACACCAAAGCTTTTTTCGGAGTCACCTAGTGCAG”, the binding signal is 8750 fluorescence intensity (a.u.).

For the sequence “CCACATAATTCCTATTTCCCATTCTCTTGCACTTATTCCACGGAGTCACCTAGTGCAG”, the binding signal is 8130 fluorescence intensity (a.u.).

With “GCTTACCAGAGTATACTAACATGTCTTCTAGATTATAATACGGAGTCACCTAGTGCAG”, the binding signal was 9600 fluorescence intensity (a.u.).

For “CTATTTTTTGTTGAAGTTTTTTGCACGGTCTAATTTCAAACGGAGTCACCTAGTGCAG”, the binding signal was 11600 fluorescence intensity (a.u.).

Take “TCATTAATTTCATGTCTCCTCTAATTTCCTCCTGAACCCTCGGAGTCACCTAGTGCAG”: the binding signal was 8980 fluorescence intensity (a.u.).

As to “GCACTTCTTCCACTTCTTCTATGATATGTTGAACATCATCCGGAGTCACCTAGTGCAG”, the binding signal is 10300 fluorescence intensity (a.u.).

“GATCCTATTCTGACCTCGATATATATGTGGAATCGTTTTGCGGAGTCACCTAGTGCAG”: the binding signal is 9470 fluorescence intensity (a.u.).

For the sequence “TTATTATTTGTATTAATTTATTAGGATTTCTCTCATGCTTCGGAGTCACCTAGTGCAG”, the binding signal was 8200 fluorescence intensity (a.u.).

On to “GACTCGCTCTCCGCCTCATCTCCCTCTCGTCAATCTCTCTCGGAGTCACCTAGTGCAG”, for which the binding signal was 9730 fluorescence intensity (a.u.).

On to “TCCCGTGTGCCCTTGTCATTATTCTTCACCCTTTATCAGTCGGAGTCACCTAGTGCAG”, for which the binding signal was 11900 fluorescence intensity (a.u.).

“TTAGCTTACCAACCCACTCTCCTCCTCCACTCACAGAAACCGGAGTCACCTAGTGCAG”: the binding signal was 8450 fluorescence intensity (a.u.).

For “TTCCTCTTCTCTTCTCGTCTCTTGTAGTAGTATATATTTACGGAGTCACCTAGTGCAG”, the binding signal is 8430 fluorescence intensity (a.u.).

On to “CGCCGCCGCCGCCATTTCTGACTCTTTCTCCGCGGCGCGTCGGAGTCACCTAGTGCAG”, for which the binding signal is 9090 fluorescence intensity (a.u.).

As for “TACATGTTGTACTCTGCCTTGTCTCTAATCTACGTTAATCCGGAGTCACCTAGTGCAG”, the binding signal is 11400 fluorescence intensity (a.u.).

On to “GCGGTCTCCTCTCCTCCCTCCCTGCTCGCGCTCTCAGTCTCGGAGTCACCTAGTGCAG”, for which the binding signal was 9970 fluorescence intensity (a.u.).

Take “TTTTCTTGTGTGGCCAAGATCTGATTTTTTTTCTCCTTTTCGGAGTCACCTAGTGCAG”: the binding signal was 11200 fluorescence intensity (a.u.).

In the case of “CTGCCTGCCTGCTGCCTCTCTCGTCGTCTGCTTGCCTACCCGGAGTCACCTAGTGCAG”, the binding signal was 9250 fluorescence intensity (a.u.).

As for “TGTTCTTGTTCTTATTATTTCATTTACCTGCTTTTTGATTCGGAGTCACCTAGTGCAG”, the binding signal is 16300 fluorescence intensity (a.u.).

For “TCCATACTTATTCACTGGATTTGTTTCTACTGATTTTTCCCGGAGTCACCTAGTGCAG”, the binding signal is 8230 fluorescence intensity (a.u.).

For “CATTGACTTTTTTAAACATGTTTGACTGTTCGTCTTATTCCGGAGTCACCTAGTGCAG”, the binding signal is 11500 fluorescence intensity (a.u.).

As to “CGCTCCAGCCGCCGCCGTCGAGCCGTGTCGCCCCTGAGAACGGAGTCACCTAGTGCAG”, the binding signal is 8150 fluorescence intensity (a.u.).

Turning to “AGATGTCAGGTTGTTAGGGTTGGGAATTCAGGTCAGATATCGGAGTCACCTAGTGCAG”, the binding signal was 10000 fluorescence intensity (a.u.).

Consider “GGGTGGGCAGTTTTTGGTGCACCCATGGGTTGCCACTACTCGGAGTCACCTAGTGCAG”, for which the binding signal is 12700 fluorescence intensity (a.u.).

With “GCCCTAACCATCACCACACATGAACCAAATGGAGCAAGATCGGAGTCACCTAGTGCAG”, the binding signal is 8530 fluorescence intensity (a.u.).
